# Reference: the supplement of paper PMC8728848
# The other results are listed elsewhere or left out.
# B1: HFR-3 (Triticum aestivum) (protein)
# chain: MKGLLLCALALAFAAVTTHAQLQSCPTRCGKQADGMECPNNLCCSKDGYCGLGVDYCSAGAGCQSGACYDNKICGAQANGTLCRNNHCCSSGGRCGYGREYCSNGCQGGPCWADLKCGHLDNGKLCPNNLCCSQYGYCGLGPEFCGTGCQNGACSTDKPCGNKANGAPCTNNYCCSQYGSCGLGKDYCGTGCQNGACN
# Columns and labels:
# Assay in all cases: glycan array binding signal (z-score within array); higher = stronger binding
# Conditions in all cases: glycan notation: IUPAC condensed, linker removed
# [1] = biological target: GlcA(b1-3)Gal
# Summary of the method: (§1)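 Negative Z-scores can be read as non-binding. The Z-score is calculated within each array and then averaged across arrays of one protein sequence at different concentrations or buffers and across linkers. Arrays, 3228 in all, were curated from the Consortium for Functional Glycomics database and kept only where the protein sequence was available.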
# [2] = biological target: GlcA(b1-3)GlcNAc
# Summary of the method: as §1
# [3] = biological target: GlcA(b1-6)Gal
# Summary of the method: as §1
# [4] = biological target: GlcA3S(b1-3)Gal(b1-4)GlcNAc(b1-2)Man
# Summary of the method: as §1
# [5] = biological target: GlcA3S(b1-3)Gal(b1-4)GlcNAc(b1-3)Gal(b1-4)Glc
# Summary of the method: as §1
# [6] = biological target: GlcNAc(a1-3)Gal(b1-4)GlcNAc
# Summary of the method: as §1
# [7] = biological target: GlcNAc(a1-4)Gal(b1-3)GlcNAc
# Summary of the method: as §1
# [8] = biological target: GlcNAc(a1-4)Gal(b1-4)GalNAc
# Summary of the method: as §1
# [9] = biological target: GlcNAc(a1-4)Gal(b1-4)GlcNAc
# Summary of the method: as §1
# [10] = biological target: GlcNAc(a1-4)Gal(b1-4)GlcNAc(b1-3)Gal(b1-4)Glc
# Summary of the method: as §1
# [11] = biological target: GlcNAc(a1-4)Gal(b1-4)GlcNAc(b1-3)Gal(b1-4)GlcNAc
# Summary of the method: as §1
# [12] = biological target: GlcNAc(a1-4)Gal(b1-4)GlcNAc(b1-3)Gal(b1-4)GlcNAc(b1-3)Gal(b1-4)GlcNAc
# Summary of the method: as §1
# [13] = biological target: GlcNAc(a1-4)Gal(b1-4)GlcNAc(b1-3)Gal(b1-4)[Fuc(a1-3)]GlcNAc(b1-3)Gal(b1-4)[Fuc(a1-3)]GlcNAc
# Summary of the method: as §1
# [14] = biological target: GlcNAc(a1-6)Gal(b1-4)GlcNAc
# Summary of the method: as §1
# [15] = biological target: GlcNAc(b1-2)Gal(b1-3)GalNAc
# Summary of the method: as §1
# [16] = biological target: GlcNAc(b1-2)Man(a1-3)[GlcNAc(b1-2)Man(a1-6)]Man(b1-4)GlcNAc(b1-4)GlcNAc
# Summary of the method: as §1
# [17] = biological target: GlcNAc(b1-2)Man(a1-3)[GlcNAc(b1-2)Man(a1-6)]Man(b1-4)GlcNAc(b1-4)[Fuc(a1-6)]GlcNAc
# Summary of the method: as §1
# [18] = biological target: GlcNAc(b1-2)Man(a1-3)[GlcNAc(b1-4)][GlcNAc(b1-2)Man(a1-6)]Man(b1-4)GlcNAc(b1-4)GlcNAc
# Summary of the method: as §1
# [19] = biological target: GlcNAc(b1-2)Man(a1-3)[GlcNAc(b1-4)][GlcNAc(b1-2)Man(a1-6)]Man(b1-4)GlcNAc(b1-4)[Fuc(a1-6)]GlcNAc
# Summary of the method: as §1
# [20] = biological target: GlcNAc(b1-2)[GlcNAc(b1-4)]Man(a1-3)[GlcNAc(b1-2)Man(a1-6)]Man(b1-4)GlcNAc(b1-4)GlcNAc
# Summary of the method: as §1
# [21] = biological target: GlcNAc(b1-2)[GlcNAc(b1-4)]Man(a1-3)[GlcNAc(b1-4)][GlcNAc(b1-2)Man(a1-6)]Man(b1-4)GlcNAc(b1-4)GlcNAc
# Summary of the method: as §1
# [22] = biological target: GlcNAc(b1-2)[GlcNAc(b1-4)]Man(a1-3)[GlcNAc(b1-4)][GlcNAc(b1-2)[GlcNAc(b1-6)]Man(a1-6)]Man(b1-4)GlcNAc(b1-4)GlcNAc
# Summary of the method: as §1
# [23] = biological target: GlcNAc(b1-2)[GlcNAc(b1-4)]Man(a1-3)[GlcNAc(b1-4)][GlcNAc(b1-2)[GlcNAc(b1-6)]Man(a1-6)]Man(b1-4)GlcNAc(b1-4)[Fuc(a1-6)]GlcNAc
# Summary of the method: as §1
# [24] = biological target: GlcNAc(b1-2)[GlcNAc(b1-6)]Man(a1-6)[GlcNAc(b1-2)Man(a1-3)]Man(b1-4)GlcNAc(b1-4)GlcNAc
# Summary of the method: as §1
# [25] = biological target: GlcNAc(b1-2)[GlcNAc(b1-6)]Man(a1-6)[GlcNAc(b1-2)Man(a1-3)]Man(b1-4)GlcNAc(b1-4)[Fuc(a1-6)]GlcNAc
# Summary of the method: as §1
# [26] = biological target: GlcNAc(b1-2)[GlcNAc(b1-6)]Man(a1-6)[GlcNAc(b1-4)][GlcNAc(b1-2)Man(a1-3)]Man(b1-4)GlcNAc(b1-4)GlcNAc
# Summary of the method: as §1
# [27] = biological target: GlcNAc(b1-3)Fuc
# Summary of the method: as §1
# [28] = biological target: GlcNAc(b1-3)Gal
# Summary of the method: as §1
# [29] = biological target: GlcNAc(b1-3)Gal(b1-3)GalNAc
# Summary of the method: as §1
# [30] = biological target: GlcNAc(b1-3)Gal(b1-4)Glc
# Summary of the method: as §1
# [31] = biological target: GlcNAc(b1-3)Gal(b1-4)GlcNAc
# Summary of the method: as §1
# [32] = biological target: GlcNAc(b1-3)Gal(b1-4)GlcNAc(b1-2)Man(a1-3)[GlcNAc(b1-3)Gal(b1-4)GlcNAc(b1-2)Man(a1-6)]Man(b1-4)GlcNAc(b1-4)GlcNAc
# Summary of the method: as §1
# [33] = biological target: GlcNAc(b1-3)Gal(b1-4)GlcNAc(b1-2)Man(a1-3)[GlcNAc(b1-3)Gal(b1-4)GlcNAc(b1-2)Man(a1-6)]Man(b1-4)GlcNAc(b1-4)[Fuc(a1-6)]GlcNAc
# Summary of the method: as §1
# [34] = biological target: GlcNAc(b1-3)Gal(b1-4)GlcNAc(b1-2)[GlcNAc(b1-3)Gal(b1-4)GlcNAc(b1-6)]Man(a1-6)[GlcNAc(b1-3)Gal(b1-4)GlcNAc(b1-2)Man(a1-3)]Man(b1-4)GlcNAc(b1-4)GlcNAc
# Summary of the method: as §1
# [35] = biological target: GlcNAc(b1-3)Gal(b1-4)GlcNAc(b1-3)Gal(b1-4)GlcNAc
# Summary of the method: as §1
# [36] = biological target: GlcNAc(b1-3)Gal(b1-4)GlcNAc(b1-3)Gal(b1-4)GlcNAc(b1-2)Man(a1-3)[GlcNAc(b1-3)Gal(b1-4)GlcNAc(b1-3)Gal(b1-4)GlcNAc(b1-2)Man(a1-6)]Man(b1-4)GlcNAc(b1-4)GlcNAc
# Summary of the method: as §1
# [37] = biological target: GlcNAc(b1-3)Gal(b1-4)GlcNAc(b1-3)Gal(b1-4)GlcNAc(b1-2)Man(a1-3)[GlcNAc(b1-3)Gal(b1-4)GlcNAc(b1-3)Gal(b1-4)GlcNAc(b1-2)Man(a1-6)]Man(b1-4)GlcNAc(b1-4)[Fuc(a1-6)]GlcNAc
# Summary of the method: as §1
# [38] = biological target: GlcNAc(b1-3)Gal(b1-4)GlcNAc(b1-3)Gal(b1-4)GlcNAc(b1-2)[GlcNAc(b1-3)Gal(b1-4)GlcNAc(b1-3)Gal(b1-4)GlcNAc(b1-6)]Man(a1-6)[GlcNAc(b1-3)Gal(b1-4)GlcNAc(b1-3)Gal(b1-4)GlcNAc(b1-2)Man(a1-3)]Man(b1-4)GlcNAc(b1-4)[Fuc(a1-6)]GlcNAc
# Summary of the method: as §1
# [39] = biological target: GlcNAc(b1-3)Gal(b1-4)GlcNAc(b1-3)Gal(b1-4)GlcNAc(b1-3)Gal(b1-4)GlcNAc(b1-2)Man(a1-3)[GlcNAc(b1-3)Gal(b1-4)GlcNAc(b1-3)Gal(b1-4)GlcNAc(b1-3)Gal(b1-4)GlcNAc(b1-2)Man(a1-6)]Man(b1-4)GlcNAc(b1-4)GlcNAc
# Summary of the method: as §1
# [40] = biological target: GlcNAc(b1-3)Gal(b1-4)GlcNAc(b1-3)Gal(b1-4)GlcNAc(b1-3)Gal(b1-4)GlcNAc(b1-2)Man(a1-3)[GlcNAc(b1-3)Gal(b1-4)GlcNAc(b1-3)Gal(b1-4)GlcNAc(b1-3)Gal(b1-4)GlcNAc(b1-2)Man(a1-6)]Man(b1-4)GlcNAc(b1-4)[Fuc(a1-6)]GlcNAc
# Summary of the method: as §1
# [41] = biological target: GlcNAc(b1-3)Gal(b1-4)GlcNAc(b1-3)Gal(b1-4)GlcNAc(b1-3)Gal(b1-4)GlcNAc(b1-2)[GlcNAc(b1-3)Gal(b1-4)GlcNAc(b1-3)Gal(b1-4)GlcNAc(b1-3)Gal(b1-4)GlcNAc(b1-6)]Man(a1-6)[GlcNAc(b1-3)Gal(b1-4)GlcNAc(b1-3)Gal(b1-4)GlcNAc(b1-3)Gal(b1-4)GlcNAc(b1-2)Man(a1-3)]Man(b1-4)GlcNAc(b1-4)[Fuc(a1-6)]GlcNAc
# Summary of the method: as §1
# [42] = biological target: GlcNAc(b1-3)Gal(b1-4)GlcNAc(b1-3)Gal(b1-4)GlcNAc(b1-3)Gal(b1-4)GlcNAc(b1-3)Gal(b1-4)GlcNAc(b1-2)Man(a1-3)[GlcNAc(b1-3)Gal(b1-4)GlcNAc(b1-3)Gal(b1-4)GlcNAc(b1-3)Gal(b1-4)GlcNAc(b1-3)Gal(b1-4)GlcNAc(b1-2)Man(a1-6)]Man(b1-4)GlcNAc(b1-4)GlcNAc
# Summary of the method: as §1
# [43] = biological target: GlcNAc(b1-3)Gal(b1-4)GlcNAc(b1-3)Gal(b1-4)GlcNAc(b1-3)Gal(b1-4)GlcNAc(b1-3)Gal(b1-4)GlcNAc(b1-2)Man(a1-3)[GlcNAc(b1-3)Gal(b1-4)GlcNAc(b1-3)Gal(b1-4)GlcNAc(b1-3)Gal(b1-4)GlcNAc(b1-3)Gal(b1-4)GlcNAc(b1-2)Man(a1-6)]Man(b1-4)GlcNAc(b1-4)[Fuc(a1-6)]GlcNAc
# Summary of the method: as §1
# [44] = biological target: GlcNAc(b1-3)Gal(b1-4)GlcNAc(b1-3)Gal(b1-4)GlcNAc(b1-3)Gal(b1-4)GlcNAc(b1-3)Gal(b1-4)GlcNAc(b1-2)[GlcNAc(b1-3)Gal(b1-4)GlcNAc(b1-3)Gal(b1-4)GlcNAc(b1-3)Gal(b1-4)GlcNAc(b1-3)Gal(b1-4)GlcNAc(b1-6)]Man(a1-6)[GlcNAc(b1-3)Gal(b1-4)GlcNAc(b1-3)Gal(b1-4)GlcNAc(b1-3)Gal(b1-4)GlcNAc(b1-3)Gal(b1-4)GlcNAc(b1-2)Man(a1-3)]Man(b1-4)GlcNAc(b1-4)[Fuc(a1-6)]GlcNAc
# Summary of the method: as §1
# [45] = biological target: GlcNAc(b1-3)Gal(b1-4)GlcNAc(b1-3)Gal(b1-4)GlcNAc(b1-3)GalNAc
# Summary of the method: as §1
binder,measurement,setting,value
B1,glycan array binding signal (z-score),[1],-0.089
same,glycan array binding signal (z-score),[2],0.799
same,glycan array binding signal (z-score),[3],-0.641
same,glycan array binding signal (z-score),[4],0.183
same,glycan array binding signal (z-score),[5],-1.31
same,glycan array binding signal (z-score),[6],0.333
same,glycan array binding signal (z-score),[7],0.841
same,glycan array binding signal (z-score),[8],-0.312
same,glycan array binding signal (z-score),[9],-0.947
same,glycan array binding signal (z-score),[10],-0.926
same,glycan array binding signal (z-score),[11],0.598
same,glycan array binding signal (z-score),[12],-0.395
same,glycan array binding signal (z-score),[13],-0.709
same,glycan array binding signal (z-score),[14],-0.582
same,glycan array binding signal (z-score),[15],0.369
same,glycan array binding signal (z-score),[16],-0.126
same,glycan array binding signal (z-score),[17],-0.197
same,glycan array binding signal (z-score),[18],0.089
same,glycan array binding signal (z-score),[19],-1.15
same,glycan array binding signal (z-score),[20],-1.68
same,glycan array binding signal (z-score),[21],-0.038
same,glycan array binding signal (z-score),[22],-0.89
same,glycan array binding signal (z-score),[23],-1.25
same,glycan array binding signal (z-score),[24],-0.021
same,glycan array binding signal (z-score),[25],-1.95
same,glycan array binding signal (z-score),[26],-0.852
same,glycan array binding signal (z-score),[27],0.533
same,glycan array binding signal (z-score),[28],-0.25
same,glycan array binding signal (z-score),[29],1.4
same,glycan array binding signal (z-score),[30],1.36
same,glycan array binding signal (z-score),[31],-1.06
same,glycan array binding signal (z-score),[32],0.65
same,glycan array binding signal (z-score),[33],-0.299
same,glycan array binding signal (z-score),[34],0.779
same,glycan array binding signal (z-score),[35],0.445
same,glycan array binding signal (z-score),[36],-0.023
same,glycan array binding signal (z-score),[37],1.07
same,glycan array binding signal (z-score),[38],0.6
same,glycan array binding signal (z-score),[39],-0.075
same,glycan array binding signal (z-score),[40],0.79
same,glycan array binding signal (z-score),[41],2.43
same,glycan array binding signal (z-score),[42],0.099
same,glycan array binding signal (z-score),[43],0.443
same,glycan array binding signal (z-score),[44],1.15
same,glycan array binding signal (z-score),[45],-0.473

# Shown tab-delimited: entries from further up.
binder	measurement	setting	value
B1	glycan array binding signal (z-score)	[11]	0.598
same	glycan array binding signal (z-score)	[20]	-1.68
same	glycan array binding signal (z-score)	[22]	-0.89
same	glycan array binding signal (z-score)	[24]	-0.021
same	glycan array binding signal (z-score)	[27]	0.533
same	glycan array binding signal (z-score)	[38]	0.6
same	glycan array binding signal (z-score)	[40]	0.79
same	glycan array binding signal (z-score)	[42]	0.099
same	glycan array binding signal (z-score)	[45]	-0.473
